# Results are given in words; binding and its absence hold for the method and conditions named. Binding seen in cells or lysates may run through a third protein. These calls come from enrichment with a bait or labelling near it, and not all partners need be listed. For some of these results: Tags and fused reporters may be left off the sequences shown.
# Chains of the proteins cited; added tags and fusions are not shown.
# UniProt Q24572: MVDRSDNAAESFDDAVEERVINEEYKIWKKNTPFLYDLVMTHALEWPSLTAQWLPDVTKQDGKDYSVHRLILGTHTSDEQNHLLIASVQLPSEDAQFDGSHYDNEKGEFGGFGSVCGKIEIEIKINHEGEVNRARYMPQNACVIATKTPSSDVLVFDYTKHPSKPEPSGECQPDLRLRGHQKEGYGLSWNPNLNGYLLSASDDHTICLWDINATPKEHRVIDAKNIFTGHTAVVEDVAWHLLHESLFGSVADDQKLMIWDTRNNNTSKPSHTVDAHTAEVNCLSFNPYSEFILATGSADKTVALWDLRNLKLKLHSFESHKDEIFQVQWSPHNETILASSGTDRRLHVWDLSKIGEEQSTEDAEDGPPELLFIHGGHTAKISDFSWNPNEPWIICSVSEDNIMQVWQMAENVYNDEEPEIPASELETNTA
# T1: Flag-tagged truncated form of Drosophila Ash1 (Ash1C, amino acids 1146–2226) (Drosophila) (UniProt Q9VW15)
# T1 sequence: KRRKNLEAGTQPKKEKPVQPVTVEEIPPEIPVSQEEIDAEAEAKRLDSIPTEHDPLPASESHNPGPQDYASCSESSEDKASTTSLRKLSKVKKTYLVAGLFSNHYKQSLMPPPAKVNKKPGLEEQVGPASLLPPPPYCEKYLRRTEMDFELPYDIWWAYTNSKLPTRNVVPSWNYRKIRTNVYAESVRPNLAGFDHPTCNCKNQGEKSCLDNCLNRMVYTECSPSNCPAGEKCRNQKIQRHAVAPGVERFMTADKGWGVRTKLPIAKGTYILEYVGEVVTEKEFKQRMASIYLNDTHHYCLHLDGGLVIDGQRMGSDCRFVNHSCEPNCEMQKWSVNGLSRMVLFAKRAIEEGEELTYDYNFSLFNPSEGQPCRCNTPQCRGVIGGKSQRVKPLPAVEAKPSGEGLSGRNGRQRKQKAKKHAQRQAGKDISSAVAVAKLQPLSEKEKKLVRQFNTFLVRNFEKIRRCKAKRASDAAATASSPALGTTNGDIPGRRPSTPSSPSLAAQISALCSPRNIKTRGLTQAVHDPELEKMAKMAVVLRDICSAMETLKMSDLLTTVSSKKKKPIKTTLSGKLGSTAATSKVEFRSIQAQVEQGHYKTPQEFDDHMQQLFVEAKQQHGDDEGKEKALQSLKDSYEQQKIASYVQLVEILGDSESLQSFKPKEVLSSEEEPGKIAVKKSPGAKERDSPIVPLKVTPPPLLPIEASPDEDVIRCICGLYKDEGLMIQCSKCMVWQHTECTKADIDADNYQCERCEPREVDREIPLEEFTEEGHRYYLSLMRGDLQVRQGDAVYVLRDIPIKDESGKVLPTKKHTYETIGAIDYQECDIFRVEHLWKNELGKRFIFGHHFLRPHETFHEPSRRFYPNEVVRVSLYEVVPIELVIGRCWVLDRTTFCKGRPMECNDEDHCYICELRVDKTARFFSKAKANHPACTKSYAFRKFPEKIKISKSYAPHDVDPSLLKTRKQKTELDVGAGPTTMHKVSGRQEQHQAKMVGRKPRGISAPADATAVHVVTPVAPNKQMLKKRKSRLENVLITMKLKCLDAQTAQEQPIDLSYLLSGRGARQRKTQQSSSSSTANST
# Key:
# [1] = biological target: T1, Flag-tagged truncated form of Drosophila Ash1 (Ash1C, amino acids 1146–2226) (Drosophila); experiment: affinity purification with mass spectrometry; Anti-Flag M2 affinity gel incubated with nuclear extract (Buffer C, 420 mM NaCl) of S2 cells stably expressing Flag-Ash1C or Flag-tagged full-length Ash1, overnight at 4 °C; washed with 500 mM KCl, 0.1% NP40; eluted with Flag peptide; SDS-PAGE, silver staining, MALDI-TOF/TOF of cut bands
# [2] = biological target: Flag-tagged full-length Drosophila Ash1 (Drosophila) (UniProt Q9VW15); experiment: as above
Molecule,binding [1],binding [2]
Drosophila Nurf55 (from UniProt Q24572 1-430),binds,binds
"Drosophila Mrg15 (protein, UniProt Q9Y0I1 1-424) MGEVKPAKVENYSTGTDANTLFVDGERVLCFHGPLIYEAKVLKTKPDATPVEYYIHYAGWSKNWDEWVPENRVLKYNDDNVKRRQELARQCGERSKKDNKKGSAKAKKMEQMRNESRASTPSKDSNTSQSTASSTPTTSAGPGSKSEAGSTGTTTTNSTANSTTSRAHRKSTQSTPSTARPGTPSDKKEDPAAAETTEEEGPVAPKKKRMSEQRPSLTGSDVAEKPLPPTTTPSTPTTEPAPCVESEEAYAAKVEVKIKIPDELKHYLTDDWYAVVREHKLLELPAKVTVQQISEQYLAHKKSVKSTSASKEVAINDVLDGIVEYFNVMLGSQLLYKFERTQYADVMQKHPDTPLSELYGSFHLLRLFVRLGSMLSYSALDQQSMQNLLTHVQDFLKFLVKNSSIFFSMSNFINVDPEYVRNAQ",binds,binds

# Source: publication PMC5696344
